Reference: PubChem BioAssay AID2685 (National Center for Advancing Translational Sciences (NCATS), 2010)
The list shows a part of the results. Further columns of the screen follow, without active or inactive calls. The list favours compounds with an active or inconclusive main result. The note in brackets gives the kind of curve behind each potency; many fits are weak.

Experiment: qHTS Assay for Lipid Storage Modulators in Drosophila S3 Cells;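 on cell number change: cells counted by Cell Tracker Red CMTPX staining in the red channel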
Conditions: BODIPY lipid droplet fluorescence, 18-24 h; for cell number change: measured here: cell count max response, cells fed with added oleic acid
Procedure, shortened: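 Drosophila S3 cells got compounds at several concentrations plus oleic acid (400 uM solution). Laser-scanning cytometry with 488 nm excitation read lipid droplets at 500-530 nm and cells at 575-640 nm. Percent activity was relative to 20 uM Triacsin C.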

[1] = measured here: lipid fluorescence (Fed channel) AC50, cells fed with added oleic acid
[2] = measured here: cell number channel AC50, cells fed with added oleic acid

| SMILES | cell number change | AC50 [1] | AC50 [2] |
| --- | --- | --- | --- |
| O=C(Nc1ncn[nH]1)c1cc(S(=O)(=O)Nc2cccc(C(F)(F)F)c2)ccc1Cl | -0.616% | – | – |
| COc1ccc(C2C(C(C)=O)=C(O)C(=O)N2C)c(OC)c1 (stereo not given) | -24.6% | 6.51 µM [falling, single point] | – |
| COc1cccc(NS(=O)(=O)c2ccc3c(c2)NC(=O)CC(=O)N3)c1 | -10.1% | 29.1 µM [rising, single point] | – |
| COc1ccc(N2C(=O)NC(=O)C2=O)cc1 | 18% | – | 0.0231 µM [rising, full curve, poor fit] |
| CCN(CC(O)Cn1c2ccccc2c2ccccc21)S(=O)(=O)c1ccc(C)cc1 (stereo not given) | -60.2% | – | 20.6 µM [falling, single point] |
| CCCC(=O)Nc1cccc(Oc2ccc3c(c2)C(=O)NC3=O)c1 | – | 1.16 µM [falling, full curve] | – |
| O=C(CNC(=O)c1ccccc1)OCC(=O)c1ccccc1Cl | -6.29% | – | – |
| COc1ccc(OC)c(NC(=O)CCc2c[nH]c3ccccc23)c1 | – | 0.116 µM [falling, full curve, poor fit] | – |
| Cn1c(=O)c2c(ncn2CC(COCc2ccccc2Cl)OCc2ccccc2Cl)n(C)c1=O (stereo not given) | 39.7% | – | – |
| COc1cc(S(=O)(=O)N(Cc2ccc(C)cc2)Cc2ccco2)ccc1-n1cnnn1 | -2.08% | 0.116 µM [falling, partial curve, poor fit] | – |
| O=C(Cc1c[nH]c2ccccc12)NCc1ccc2c(c1)OCO2 | 0.61% | 0.116 µM [rising, full curve, poor fit] | – |
| CC(C)(C)c1csc(NC(=O)c2ccccc2O)n1 | -23.7% | – | – |
| COc1ccc(-c2nc(CN3CCC(C(=O)N4CCOCC4)CC3)c(C)o2)cc1OC | -5.19% | 29.1 µM [rising, single point] | – |
| O=C(c1cc(COc2c(F)cccc2F)on1)N1CCC(c2ccccc2F)C1 (stereo not given) | -20.9% | 29.1 µM [falling, single point] | – |
| CCCCOC(=S)NC(=O)c1sc2ccccc2c1Cl | -10.3% | 2.31 µM [falling, full curve, poor fit] | – |
| O=C(O)c1ccc(-c2sc(Nc3ccccc3)n[n+]2-c2ccccc2)cc1 | 15.2% | 0.461 µM [rising, full curve, poor fit] | – |
| CCC(C)NC(=O)c1cn(-c2cccc(OC)c2)c(=O)c2ccccc12 (stereo not given) | -5.67% | 0.0651 µM [rising, full curve, poor fit] | – |
| Cc1cc(O)cc(O)c1C(=O)Cc1cnn(-c2ccccc2)c1 | -17.3% | 29.1 µM [rising, partial curve] | – |
| O=C(N/N=C/c1cc2c(cc1Cl)OCO2)c1cc(-c2ccccc2)n[nH]1 | 41.6% | – | 5.17 µM [rising, partial curve, poor fit] |
| COc1ccc(C2/C=C\CN(CC(C)C)CC(=O)N2Cc2ccc(F)cc2)cc1 (stereo not given) | – | 11.6 µM [rising, partial curve] | – |
| CC(NC(=O)c1ccco1)C(=O)NC(C)c1cc(F)c(Cl)cc1Cl (stereo not given) | 29.4% | 0.58 µM [rising, single point] | – |

| SMILES | cell number change | AC50 [1] | AC50 [2] |
| --- | --- | --- | --- |
| CCCn1c(SCC(=O)NCc2ccc3c(c2)OCO3)n[nH]c1=O | 3.16% | 0.461 µM [falling, partial curve, poor fit] | – |
| Cc1cc(C(=O)N/N=C/c2sc(N3CCOCC3)nc2-c2ccccc2)c(C)o1 | -0.88% | – | – |
| CCCS(=O)(=O)c1cnc(C2COc3ccccc3O2)nc1N (stereo not given) | 21.6% | 8.2 µM [rising, partial curve] | – |
| CN(C(=O)CSc1ccc(S(=O)(=O)N2CCCCC2)cn1)c1ccccc1 | -10.4% | 0.184 µM [falling, full curve, poor fit] | – |
| O=C(CCC1CCCN(C(=O)C2CCCC2)C1)NCc1ccc(F)c(F)c1 (stereo not given) | -26.1% | 18.4 µM [falling, partial curve] | – |
| CN(CCOc1ccccc1)C(=O)c1ccc2c(c1)OCO2 | -1.96% | – | 0.00411 µM [falling, full curve, poor fit] |
| CN(CCC#N)C(=O)CC1(Cc2ccccc2)CCOC(C)(C)C1 (stereo not given) | -3.52% | – | – |
| O=C(NCc1ccccn1)c1cc(-c2ccccc2Cl)nc2ccccc12 | 63.4% | 7.31 µM [falling, single point] | 18.4 µM [rising, single point] |
| C=CCSc1nc(N)c2c(C)c(C)sc2n1 | 5.93% | 1.16 µM [rising, full curve] | – |
| CCn1c(CSc2nc(C)cc(C)n2)nnc1SCC(=O)Nc1nc(-c2ccccc2)cs1 | -3.64% | 0.651 µM [rising, full curve] | – |
| O=C(c1ccco1)N1CCN(Cc2cc(=O)c(OCc3ccc([N+](=O)[O-])cc3)co2)CC1 | 44.1% | – | 8.2 µM [rising, partial curve, poor fit] |
| Cc1cc(SC#N)cc(C)c1NC(=O)CCl | -1.63% | – | – |
| Cc1cc(NC(=O)CCC(=O)N(Cc2ccccc2)C(C(=O)NC2CCCC2)c2ccc(C)o2)no1 (stereo not given) | -23.1% | 29.1 µM [rising, single point] | – |
| C=C(C)[C@@H]1CC=C(CN2CCC(N3CCC(C(=O)N4CCCC4)CC3)CC2)CC1 | -17.6% | 29.1 µM [falling, single point] | – |
| CCOc1ccc(/C=C(\C#N)C(=O)c2c(C)[nH]c3ccccc23)cc1OC | – | 0.291 µM [rising, single point] | – |
| CC(C)CS(=O)(=O)C1=NSC2=NC(=O)/C(=C\c3ccc(OC(=O)c4ccco4)cc3)C(=N)N21 | -23.8% | 29.1 µM [falling, single point] | – |
| Cc1cc(=S)nc(-c2ccccn2)[nH]1 | -4.65% | – | – |
| CN(CC(=O)Nc1cccc(F)c1)C(=O)c1cn(-c2ccccc2)nc1-c1ccccc1 | – | 29.1 µM [falling, single point] | – |
| CSC1=NC(=O)/C(=C\c2cccc3ccccc23)S1 | – | – | 0.58 µM [rising, single point] |
| Cc1cc(C)cc(NC(=S)N2C3CCCC2CC(NC(=O)C2CC2)C3)c1 (stereo not given) | 8.97% | – | – |
| CCCn1c(C)cc(C(=O)CSc2nnc3n(CCC)c(=O)c4ccccc4n23)c1C | -3.54% | 29.1 µM [falling, single point] | – |

| SMILES | cell number change | AC50 [1] | AC50 [2] |
| --- | --- | --- | --- |
| CCn1nc(C)c(CN2CCC(n3nccc3NC(=O)Cc3ccccc3)CC2)c1C | -4.18% | 5.17 µM [falling, single point] | – |
| COc1ccc(OC)c(S(=O)(=O)N(C)CC(=O)N2CCN(c3ccccc3F)CC2)c1 | 146% | 2.59 µM [rising, partial curve] | 4.61 µM [rising, partial curve] |
| Cc1ccc2c(Cl)cc(Cl)c(OCC(=O)N3CCOCC3)c2n1 | 22.3% | 0.291 µM [rising, partial curve, poor fit] | – |
| COc1cccc(OC)c1C(=O)Nc1ccc(N2CCN(C(=O)c3ccco3)CC2)cc1 | 5.13% | – | – |
| O=C(CN1CCSCC1)N/N=C/c1ccc(F)cc1F | -93% | – | 29.1 µM [falling, single point] |
| COc1ccc(C2NCCc3c2[nH]c2ccccc32)cc1CSc1nc2ccccc2s1 (stereo not given) | -94.4% | 25.9 µM [falling, partial curve] | 20.6 µM [falling, partial curve] |
| CCc1ccc(CNC(=O)CCc2nc(-c3cccs3)no2)cc1 | 6.81% | 18.4 µM [falling, partial curve] | – |
| CC(=O)c1ccc(OCC(O)CN2CCCC(C)C2)cc1 (stereo not given) | 12.7% | 0.651 µM [falling, single point] | – |
| O=C(c1ccccc1)N1CCN(CCc2ccccn2)CC1 | -14.4% | 29.1 µM [rising, single point] | – |
| COc1ccc(NC(=O)CNC(=O)Cn2c(C)cc3ccccc3c2=O)c(OC)c1 | -0.273% | – | – |
| Cc1ccc(S(=O)(=O)N(CC(=O)N2CCc3ccccc3C2)c2cccc(Cl)c2)cc1 | 2.29% | 32.6 µM [rising, partial curve, poor fit] | – |
| Cc1cccc(C(=O)Nc2ccc3c(c2)ncn3C)c1 | 2.01% | 0.206 µM [rising, partial curve, poor fit] | – |
| COc1ccc(-c2noc(CCc3ccccc3)n2)cc1 | 84.9% | – | 23.1 µM [rising, partial curve] |
| COc1ccc(NC(C)=O)cc1NC(=O)c1cccc(S(=O)(=O)N2CCc3ccccc32)c1 | 17.8% | 18.4 µM [rising, single point] | 3.26 µM [rising, single point] |
| O=C(CN1C2=NCCCN2c2ccccc21)c1ccc(Br)s1 | 78.9% | 4.11 µM [rising, single point] | 8.2 µM [rising, partial curve] |
| CCN1CCN(S(=O)(=O)c2ccc(Br)s2)CC1 | -213% | – | 29.1 µM [falling, partial curve] |
| Cc1cccc([C@@H]2[C@@H]3C(=O)N(Cc4ccccc4)C(=O)[C@@H]3[C@]3(Cc4ccc(Cl)cc4)C(=O)N(c4ccc(Br)cc4)C(=O)N23)c1 | 58.7% | 6.51 µM [falling, single point] | 29.1 µM [rising, single point] |
| COc1ccc(Nc2ncnc3c2cnn3-c2cccc(C)c2)cc1OC | 17.4% | 0.366 µM [rising, full curve] | – |
| COc1ncnc(OC)c1NC(=O)c1ccc(F)cc1 | 11.8% | 2.06 µM [falling, partial curve, poor fit] | 2.06 µM [falling, partial curve, poor fit] |
| CCOC(=O)c1c(C)[n+]([O-])c2ccc3c(non3O)c12 | -50.1% | 29.1 µM [falling, single point] | 25.9 µM [falling, single point] |

Four compounds already listed, sorted by length of the SMILES, largest number first:

| SMILES | cell number change | AC50 [1] | AC50 [2] |
| --- | --- | --- | --- |
| COc1ccc(NC(=O)CNC(=O)Cn2c(C)cc3ccccc3c2=O)c(OC)c1 | -0.273% | – | – |
| CCc1ccc(CNC(=O)CCc2nc(-c3cccs3)no2)cc1 | 6.81% | 18.4 µM [falling, partial curve] | – |
| Cc1cccc(C(=O)Nc2ccc3c(c2)ncn3C)c1 | 2.01% | 0.206 µM [rising, partial curve, poor fit] | – |
| COc1ccc(-c2noc(CCc3ccccc3)n2)cc1 | 84.9% | – | 23.1 µM [rising, partial curve] |
